PubChem BioAssay AID1224830, NIAID – 2016
This is a random part of about 18,000 reagents. About 2,900 of them (16%) were called active. 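Calls are made per well; low scores hint the gene aids the LPS response, high scores that it dampens it.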 A number with no mark means an inactive call. Repeated entries: four replicate wells of each siRNA pool.

- Test: 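Regulators of TLR4 signalling towards TNF-alpha in macrophage-like cells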 (primary screen)
- Cells: human THP-1 monocytic leukaemia cells, TNF dual-luciferase reporter clone, PMA-differentiated to macrophage-like cells
- Knock-down reagent: siRNA pool against human genes, 50 nM
- Timing: LPS for 4 h, given about 3 days after siRNA transfection
- Challenge: bacterial LPS (TLR4 ligand), 10 ng/ml
- Read-out: 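TNF firefly reporter luminescence divided by renilla, normalised to the plate median, then turned into a robust z-score for each replicate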
- Reading the numbers: TNF reporter robust z-score: higher = stronger TNF reporter response to LPS
- Hit rule: 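Each well counts as active if its z-score is over 2.8 or under -1.5; controls are left without a call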

gene knocked down | TNF reporter robust z-score
MCRS1 (microspherule protein 1) | -0.32
MCRS1 (microspherule protein 1) | 0.42
MCRS1 (microspherule protein 1) | 0.86
MCRS1 (microspherule protein 1) | 0.41
CELF6 (CUGBP Elav-like family member 6) | -0.54
CELF6 (CUGBP Elav-like family member 6) | -0.43
CELF6 (CUGBP Elav-like family member 6) | -0.63
KLHL31 (kelch like family member 31) | -0.44
KLHL31 (kelch like family member 31) | 0.9
KLHL31 (kelch like family member 31) | -0.32
KLHL31 (kelch like family member 31) | -0.13
SPATA32 (spermatogenesis associated 32) | -0.29
SPATA32 (spermatogenesis associated 32) | -0.41
SPATA32 (spermatogenesis associated 32) | -0.05
SPATA32 (spermatogenesis associated 32) | -0.14
RGS1 (regulator of G protein signaling 1) | -1.18
RGS1 (regulator of G protein signaling 1) | -0.81
RGS1 (regulator of G protein signaling 1) | 0.23
RGS1 (regulator of G protein signaling 1) | -0.49
PDYN (prodynorphin) | -0.15
PDYN (prodynorphin) | 1.51
PDYN (prodynorphin) | -0.83
PDYN (prodynorphin) | 0.8
SRP54 (signal recognition particle 54) | -2.32 (active)
SRP54 (signal recognition particle 54) | -2.24 (active)
SRP54 (signal recognition particle 54) | -2.08 (active)
SRP54 (signal recognition particle 54) | -2.28 (active)
OSBPL10 (oxysterol binding protein like 10) | 0.18
OSBPL10 (oxysterol binding protein like 10) | 2.18
OSBPL10 (oxysterol binding protein like 10) | 2.03
KCNQ5 (potassium voltage-gated channel subfamily Q member 5) | -0.16
KCNQ5 (potassium voltage-gated channel subfamily Q member 5) | -0.1
KCNQ5 (potassium voltage-gated channel subfamily Q member 5) | -0.08
KCNQ5 (potassium voltage-gated channel subfamily Q member 5) | 0.23
MTM1 (myotubularin 1) | 1.44
MTM1 (myotubularin 1) | -0.08
MTM1 (myotubularin 1) | -0.38
MTM1 (myotubularin 1) | 0.55
XKRX (XK related X-linked) | 1.5
XKRX (XK related X-linked) | 0.46
XKRX (XK related X-linked) | 1.15
XKRX (XK related X-linked) | 0.09
CDK9 (cyclin dependent kinase 9) | -0.48
CDK9 (cyclin dependent kinase 9) | 0.71
CDK9 (cyclin dependent kinase 9) | -0.76
CDK9 (cyclin dependent kinase 9) | -0.45
ANKRD34B (ankyrin repeat domain 34B) | -0.78
ANKRD34B (ankyrin repeat domain 34B) | -0.14
ANKRD34B (ankyrin repeat domain 34B) | 1.39
TAF15 (TATA-box binding protein associated factor 15) | -1.5
TAF15 (TATA-box binding protein associated factor 15) | -0.89
TAF15 (TATA-box binding protein associated factor 15) | -0.93
TAF15 (TATA-box binding protein associated factor 15) | 0.55
CLPSL2 (colipase like 2) | -0.44
CLPSL2 (colipase like 2) | 0.32
CLPSL2 (colipase like 2) | -0.95
CLPSL2 (colipase like 2) | 0.44
FCRL3 (Fc receptor like 3) | -0.77
FCRL3 (Fc receptor like 3) | 0.74
FCRL3 (Fc receptor like 3) | -0.5
FCRL3 (Fc receptor like 3) | 0.32
HCG9 (HLA complex group 9) | 2.47
HCG9 (HLA complex group 9) | 1.28
HCG9 (HLA complex group 9) | 5.91 (active)
HCG9 (HLA complex group 9) | 2.66
GKN1 (gastrokine 1) | -0.65
GKN1 (gastrokine 1) | -0.32
GKN1 (gastrokine 1) | -1.03
GKN1 (gastrokine 1) | -0.63
FAM120C (family with sequence similarity 120 member C) | -0.19
FAM120C (family with sequence similarity 120 member C) | 1.66
FAM120C (family with sequence similarity 120 member C) | 1.77
FAM120C (family with sequence similarity 120 member C) | 1.9
ADRA1A (adrenoceptor alpha 1A) | -0.04
ADRA1A (adrenoceptor alpha 1A) | 0.04
ADRA1A (adrenoceptor alpha 1A) | -0.26
ADRA1A (adrenoceptor alpha 1A) | 0.23
KRTAP10-11 (keratin associated protein 10-11) | 0.33
KRTAP10-11 (keratin associated protein 10-11) | 0.61
KRTAP10-11 (keratin associated protein 10-11) | -0.63
KRTAP10-11 (keratin associated protein 10-11) | 1.18
ETAA1 (ETAA1 activator of ATR kinase) | 0.17
ETAA1 (ETAA1 activator of ATR kinase) | 0.92
ETAA1 (ETAA1 activator of ATR kinase) | 0.82
ETAA1 (ETAA1 activator of ATR kinase) | 0.72
CDKN1C (cyclin dependent kinase inhibitor 1C) | 0.03
CDKN1C (cyclin dependent kinase inhibitor 1C) | 1.15
CDKN1C (cyclin dependent kinase inhibitor 1C) | -1.02
CDKN1C (cyclin dependent kinase inhibitor 1C) | -0.96
CA8 (carbonic anhydrase 8 (inactive)) | 0.03
CA8 (carbonic anhydrase 8 (inactive)) | 0.34
CA8 (carbonic anhydrase 8 (inactive)) | -0.71
CA8 (carbonic anhydrase 8 (inactive)) | -0.67
IAH1 (isoamyl acetate hydrolyzing esterase 1 (putative)) | 17 (active)
IAH1 (isoamyl acetate hydrolyzing esterase 1 (putative)) | 15.5 (active)
IAH1 (isoamyl acetate hydrolyzing esterase 1 (putative)) | 15.4 (active)
IAH1 (isoamyl acetate hydrolyzing esterase 1 (putative)) | 12.9 (active)
ELOVL6 (ELOVL fatty acid elongase 6) | 0.74
ELOVL6 (ELOVL fatty acid elongase 6) | 1.07
ELOVL6 (ELOVL fatty acid elongase 6) | -0.57
ELOVL6 (ELOVL fatty acid elongase 6) | 0.59
BPIFB4 (BPI fold containing family B member 4) | -1.22
BPIFB4 (BPI fold containing family B member 4) | -1.6 (active)
BPIFB4 (BPI fold containing family B member 4) | -1.34
BPIFB4 (BPI fold containing family B member 4) | -1.19
NKAIN1 (sodium/potassium transporting ATPase interacting 1) | -1.32
NKAIN1 (sodium/potassium transporting ATPase interacting 1) | -0.63
NKAIN1 (sodium/potassium transporting ATPase interacting 1) | -1.6 (active)
NKAIN1 (sodium/potassium transporting ATPase interacting 1) | 0.1
SNRPD1 (small nuclear ribonucleoprotein D1 polypeptide) | 1.41
SNRPD1 (small nuclear ribonucleoprotein D1 polypeptide) | 1.08
SNRPD1 (small nuclear ribonucleoprotein D1 polypeptide) | 1.03
SNRPD1 (small nuclear ribonucleoprotein D1 polypeptide) | 1.18
